Measurements from patent US20240051960A1, “SPIROCYCLIC IMIDAZOLIDINONES AND IMIDAZOLIDINEDIONES FOR TREATMENT OF LIGHT CHAIN AMYLOIDOSIS” (Protego Biopharma, Inc., priority 2021, published 2024).
Some entries share one result that the patent states for a list of compounds.

Tested on: Recombinant amyloidogenic full length light chain protein WIL-FL T46L
Test: Differential Scanning Fluorimetry (thermal shift) assay
Type: binding
Conditions: protein and compounds incubated at RT for 30 min before adding the dye, Thermal Shift Protein Stability Kit, 96-well plates
Protocol: Differential Scanning Fluorimetry Assay
The stabilization effects the compounds have on the immunoglobulin light chain protein is quantitively measured using a thermal shift assay. Recombinant amyloidogenic full length light chain protein WIL-FL T46L is produced in E. coli, purified, and used in the assay. The Thermal Shift Protein Stability Kit from Biotium is used and the assay is done in 96-well Plates following the manufacture's instructions. The protein and compounds are incubated at RT for 30 min before adding the dye and subjected to the thermal shift assay. The thermal stability of each sample is then determined using standard curve fitting methods.
Compounds that induce shifts in the ranges below are listed in the table below: • 0-0.5° C.=* • >0.5-1° C.=** • >1-1.5° C.=*** • >1.5° C.=****

Row | SMILES | Thermal Shift
1 | O=C(CN1C(=O)NC2(CCN(c3cc(=O)[nH]c(=O)[nH]3)CC2)C1=O)Nc1ccc(C(F)(F)F)cc1 [Compound 88] | ** (>0.5-1° C.=**)
2 | O=C(CN1C(=O)NC2(CCN(c3nccn4ccnc34)CC2)C1=O)Nc1ccc(C(F)(F)F)cc1 [Compound 84] | *** (>1-1.5° C.=***)
3 | O=C(CN1C(=O)NC2(CCN(c3ncccn3)CC2)C1=O)Nc1ccc(C(F)(F)F)cc1 [Compound 42] | *** (>1-1.5° C.=***)
4 | O=C(CN1C(=O)NC2(CCN(c3nccn4cccc34)CC2)C1=O)Nc1ccc(C(F)(F)F)cc1 [Compound 83] | ** (>0.5-1° C.=**)
5 | O=C(CN1C(=O)NC2(CCN(c3ncnc4[nH]cnc34)CC2)C1=O)Nc1ccc(C(F)(F)F)cc1 [Compound 86] | *** (>1-1.5° C.=***)
6 | O=C1NC2(CCN(c3ncccn3)CC2)CN1CC(=O)n1ccccc1=O [Compound 9] | ** (>0.5-1° C.=**)
7 | O=C(CN1C(=O)NC2(CCN(c3nccn4cncc34)CC2)C1=O)Nc1ccc(C(F)(F)F)cc1 [Compound 85] | *** (>1-1.5° C.=***)
8 | O=C(CN1C(=O)NC2(CCN(c3nccc4cccn34)CC2)C1=O)Nc1ccc(C(F)(F)F)cc1 [Compound 82] | *** (>1-1.5° C.=***)
9 | O=C(CN1C(=O)NC2(CCN(c3nccc4ncnn34)CC2)C1=O)Nc1ccc(C(F)(F)F)cc1 [Compound 87] | ** (>0.5-1° C.=**)
10 | O=C(CN1C(=O)NC2(CCN(c3cc[nH]c(=O)n3)CC2)C1=O)Nc1ccc(C(F)(F)F)cc1 [Compound 89] | ** (>0.5-1° C.=**)
